No constants are given. Whether binding was seen depends on the method and setting.
Biological target: RbBP5 (1–340) (mouse) (UniProt Q8BX09)
Assay: 1H-15N HSQC NMR spectrum; 40–50 μM 15N-labeled RbBP5(1–340), 10 mM Tris–HCl, 75 mM NaCl, pH 7.2, 10% D2O, 37°C; both purified

Chains of the proteins cited; added tags and fusions are not shown. Residues count along the entry.
UniProt Q8BX09, residues 1-340: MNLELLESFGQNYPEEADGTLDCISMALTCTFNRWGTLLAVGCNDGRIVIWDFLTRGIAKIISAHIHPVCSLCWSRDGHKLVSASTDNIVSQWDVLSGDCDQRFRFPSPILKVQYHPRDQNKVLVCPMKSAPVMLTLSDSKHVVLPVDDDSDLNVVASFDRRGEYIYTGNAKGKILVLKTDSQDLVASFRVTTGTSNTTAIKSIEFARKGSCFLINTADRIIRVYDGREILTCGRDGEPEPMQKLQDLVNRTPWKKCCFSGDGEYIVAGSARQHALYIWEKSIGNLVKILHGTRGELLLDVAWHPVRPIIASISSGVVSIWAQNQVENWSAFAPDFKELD

## RbBP5 (1–340) (from UniProt Q8BX09 1-340) (domain or fragment)
  binding: no binding (tested: 40–50 μM)
